Legend:
I2 imidazoline receptor = I2 imidazoline receptor binding assay ([3H]idazoxan); details: [3H]idazoxan 2 nM, rat cerebral cortex
I1 imidazoline receptor = I1 imidazoline receptor binding assay ([3H]clonidine); details: [3H]clonidine 15 nM, bovine adrenal medulla glands

SMILES | nH (Hill coefficient) (I2 imidazoline receptor) | nH (Hill coefficient) (I1 imidazoline receptor)
c1ccc2c(c1)OCC(C1=NCCN1)O2 (centres unmarked) [idazoxan, reference compound] | 1.7 | 
C1COC(NC(C2CC2)C2CC2)=N1 [rilmenidine, reference compound] |  | 0.9

Reference: article PMC3499525 (PLoS ONE, 2012)
